This assay deals with recombinant Fc fusion protein composed of the Sushi domain 1 and 2 of human CD46 (human) (UniProt P15529). Nature of the assay: phage and yeast display selection and FACS screening with recombinant CD46-Fc fusion.

Chains of the proteins cited; added tags and fusions are not shown. Residues count along the entry.
UniProt P15529, residues 35-159: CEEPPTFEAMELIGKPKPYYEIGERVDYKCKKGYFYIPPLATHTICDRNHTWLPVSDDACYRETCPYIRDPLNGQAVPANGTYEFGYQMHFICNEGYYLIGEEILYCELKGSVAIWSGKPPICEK

No constants are given. Whether binding was seen depends on the method and setting. Some entries that bind do so weakly or less than the wild type.

B1: YS5v1D (antibody, V domains shown)
VH: QVQLVQSGGGVVQPGRSLRLACAASGFTVNNYAMHWVRQAPGKGLEWVAVISYDGNNKYYADSVKGRFTISRDNSKNTLYLQMNSLRAEDTAVYYCAKGGGYFDLWGRGTLVTVSS
VL: QSVLTQPPSVSGAPGQRVTISCTGSSSNIGAGYDVHWYQQLPGTAPKLLIYGDNNRPSGVPDRFSGSKSGTSASLAITGLQAEDEADYYCSSYTSGTWLFGGGTKLTVL
Regarding B1, the binding entry is “binds”.

The values above are taken from patent US20170362330A1.
